Assay results: PMC10367555

Sequences of proteins named here, by UniProt entry; tags and fusion partners are left off. A change or cut given only in a name is not applied to a line headed by its entry. Residues count along the entry.
UniProt P34741, residues 19-201: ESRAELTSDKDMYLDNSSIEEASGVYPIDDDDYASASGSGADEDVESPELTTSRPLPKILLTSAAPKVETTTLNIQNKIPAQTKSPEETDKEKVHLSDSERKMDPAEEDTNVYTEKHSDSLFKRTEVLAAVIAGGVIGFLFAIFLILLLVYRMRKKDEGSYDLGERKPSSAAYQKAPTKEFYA
UniProt P09038: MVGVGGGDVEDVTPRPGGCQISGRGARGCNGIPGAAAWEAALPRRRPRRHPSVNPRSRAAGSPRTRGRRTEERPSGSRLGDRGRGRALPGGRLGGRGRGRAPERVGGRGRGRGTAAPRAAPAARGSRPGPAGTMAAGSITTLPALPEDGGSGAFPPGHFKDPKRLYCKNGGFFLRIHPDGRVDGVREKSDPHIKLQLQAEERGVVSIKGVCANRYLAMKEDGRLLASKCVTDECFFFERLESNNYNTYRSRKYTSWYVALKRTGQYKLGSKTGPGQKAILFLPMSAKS

Target: FLAG-tagged-SDC2 (Syndecan-2) (UniProt P34741)
Assay: affinity purification with mass spectrometry; HEK293T transfected with control or FLAG-tagged-SDC2 plasmid; extracts incubated with anti-FLAG magnetic beads for 12 h; precipitate separated by SDS-PAGE, bands cut and analysed by LC-MS

binding: binds
Molecule: FGF2 (Fibroblast growth factor 2), found with FLAG-SDC2 in HEK293T (from UniProt P09038) (ligand)

binding: binds
B1: PDK1 (3-Phosphoinositide dependent protein kinase 1), found with FLAG-SDC2 in HEK293T (protein, UniProt O15530 1-556)
chain: MARTTSQLYDAVPIQSSVVLCSCPSPSMVRTQTESSTPPGIPGGSRQGPAMDGTAAEPRPGAGSLQHAQPPPQPRKKRPEDFKFGKILGEGSFSTVVLARELATSREYAIKILEKRHIIKENKVPYVTRERDVMSRLDHPFFVKLYFTFQDDEKLYFGLSYAKNGELLKYIRKIGSFDETCTRFYTAEIVSALEYLHGKGIIHRDLKPENILLNEDMHIQITDFGTAKVLSPESKQARANSFVGTAQYVSPELLTEKSACKSSDLWALGCIIYQLVAGLPPFRAGNEYLIFQKIIKLEYDFPEKFFPKARDLVEKLLVLDATKRLGCEEMEGYGPLKAHPFFESVTWENLHQQTPPKLTAYLPAMSEDDEDCYGNYDNLLSQFGCMQVSSSSSSHSLSASDTGLPQRSGSNIEQYIHDLDSNSFELDLQFSEDEKRLLLEKQAGGNPWHQFVENNLILKMGPVDKRKGLFARRRQLLLTEGPHLYYVDPVNKVLKGEIPWSQELRPEAKNFKTFFVHTPNRTYYLMDPSGNAHKWCRKIQEVWRQRYQSHPDAAVQ

No constants are given. Whether binding was seen depends on the method and setting. In cells and extracts the contact can be indirect. Here binding means that the protein was enriched with, or labelled near, the bait; the list need not be complete. Sequences can lack the tags named with a protein. One block for each molecule: values may come before it.
